This passage reports activity change, negative = inhibition results from PubChem BioAssay AID588398 (Broad Institute, 2011).

About 110 (9.2%) of roughly 1,200 compounds were called active. Another 8% or so got no clear call; they are omitted.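 The calls were made as follows: active = pathway reporter half-maximal dose under half the control reporter's, or control reporter unaffected while pathway reporter is inhibited; inconclusive = either signal flat at 30 to 70% inhibition or poorly fitted; inactive = the rest.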 The list shows a part of the results, in another mix than the full data. Potency and affinity values are given separately.

The experiment can be described thus: LMP1 TES1 pathway selectivity over dsRED control – imaging, HEK293T, dual-color eGFP/dsRED, cherry-picks, selectivity assay for LMP1 NF-kB inhibitor project, dose response (AID 588398).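 Also: 0% = median of neutral control wells and -100% = median of MG132 positive control wells.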 To be noted: 48 h; HEK293T Tet-On dsRED counter-screen channel, at 19.5 µM (top of the series) unless noted. Background: Counterscreens check selectivity or assay interference.
Take `Cc1ccc2[nH]c3c(c2c1)CCCC3NC(=O)CCl` (stereo unspecified): the activity change, negative = inhibition was inactive: -99.7%. For the compound `COc1ccc(OC)c2[nH]c(=O)c(CCNC(=O)c3ccc(S(=O)(=O)N(C)C)cc3)cc12`, the activity change, negative = inhibition is inactive: 5.12%. Consider `COc1ccc(-c2csc3ncnc(NCCCO)c23)cc1`, for which the activity change, negative = inhibition was inactive: -88%. Next, `COc1ccc(S(=O)(=O)NCC(c2cccnc2)N2CCN(c3ccc(F)cc3)CC2)cc1C` (stereo unspecified): inactive: -17.3%.

In the case of `O=C(CN1CCN(S(=O)(=O)c2ccc(F)cc2)CC1)Nc1cccc(C(F)(F)F)c1`, the activity change, negative = inhibition is inactive: 2%.

As to `COc1ccccc1C1(CC(=O)O)CCOC(C)(C)C1` (stereo unspecified), the activity change, negative = inhibition was inactive: -4.27%. The figure for `COc1ccc(OC)c(CCNC(=O)CCn2nc(C)c3c(C)n(-c4ccccc4)nc3c2=O)c1` is inactive: 33%. As to `COc1cccc(/C=N\NC(=O)c2ccc(C)nc2)c1`, the activity change, negative = inhibition was inactive: 1.79%. For `CCOC(=O)c1nc(NCc2ccccc2F)c2ccccc2n1`, the activity change, negative = inhibition was inactive: -11.5%. Next, `CNC(=O)c1[nH]cnc1C(=O)N[C@@H](CCCCNC(=O)OC(C)(C)C)C(=O)OC(C)(C)C`: inactive: 13.2%; `COc1ccc(N2C(=O)C(Cl)=C(NCc3ccccc3)C2=O)cc1`: inactive: -1.67%; `Nc1ccccc1SC1CC(=O)N(c2ccccc2Cl)C1=O` (stereo unspecified): inactive: 11.7%.

Turning to `CCC(=O)NC(c1ccc(Cl)cc1Cl)c1ccc2cccnc2c1O` (stereo unspecified), the activity change, negative = inhibition is inactive: -96.5%. The figure for `Cc1ccc(NS(=O)(=O)c2ccc(NC(=O)C(C)Sc3ccc(Cl)cc3)cc2)c(C)c1` (stereo unspecified) is inactive: 11.4%; for `CCc1ccccc1N(CC(=O)NCc1ccco1)C(=O)c1snc(C(N)=O)c1N` it is inactive: -0.253%; for `COc1ccc(/C=C2\SC(=O)N(CCCC(=O)Nc3ccc(C(=O)O)cc3)C2=O)cc1` it is inactive: 9.66%. Regarding `C(=Cc1cnc2ccccc2n1)c1ccc2c(c1)OCO2`, the activity change, negative = inhibition was inactive: 7.85%. Next, `CC1=C(C)C(OCCCl)N(c2cc(O)c(Cl)cc2F)C1=O` (stereo unspecified): inactive: 1.07%.

With `Cc1ccc(C(=O)Nc2ccc3ncccc3c2)cc1`, the activity change, negative = inhibition is inactive: -2.36%.

`CCc1c(C)nc2cc(-c3ccc(OC)c(OC)c3)nn2c1NCC1CC1`: the activity change, negative = inhibition was inactive: 53.3%.

On to `CCOc1cccc(CNc2nnnn2C)c1`, for which the activity change, negative = inhibition was inactive: 6.94%.

For the compound `Cc1ccc(NC(=S)N=Nc2c(O)n(C)c3ccc(S(=O)(=O)N4CCOCC4)cc23)cc1`, the activity change, negative = inhibition is inactive: 11.2%.

On to `COc1cc(CC(=O)N(c2ccccc2)c2nc(C)cs2)cc(OC)c1OC`, for which the activity change, negative = inhibition was inactive: 13.9%. Next, `CCc1nnc(NC(=O)c2cc(S(=O)(=O)N3CCN(CC)CC3)ccc2Cl)s1`: inactive: 26.4%; `O=C(Nc1ccncc1)OCc1ccccc1`: inactive: 17.6%.

On to `CCn1c(CCNC(=O)c2ccc(OC)cc2)nnc1SCc1ccc(Cl)cc1Cl`, for which the activity change, negative = inhibition was inactive: 2.4%. The figure for `Cc1ccc(-c2nnn(CC(=O)N(Cc3ccco3)C(C(=O)NC(C)(C)C)c3ccncc3)n2)o1` (stereo unspecified) is inactive: -5.13%; for `NC(=O)C1(Nc2ccc([N+](=O)[O-])cc2)CCCC1` it is inactive: -2.27%; for `O=C(Cc1ccc(Cl)cc1)NCC(=O)N1CCCCC1` it is inactive: -3.68%. The figure for `COc1cccc(/C=C/c2ccc3ccccc3n2)c1OC(C)=O` is inactive: -18.3%. The figure for `COc1ccc(OC)c(S(=O)(=O)NC(C)CCc2ccccc2)c1` (stereo unspecified) is inactive: -0.41%; for `O=[N+]([O-])c1ccc(O)c(/C=N/Nc2ncnc3c2cnn3-c2ccccc2)c1` it is inactive: 0.818%; for `CCC(=O)NC(=S)Nc1ccccc1C(F)(F)F` it is inactive: -9.66%.

For the compound `O=C(CC(c1ccc(F)cc1)c1ccco1)N1CCOCC1` (stereo unspecified), the activity change, negative = inhibition was inactive: 17.5%. Next, `Cc1cc(N=Cc2c(O)ccc3cc(Br)ccc23)no1`: inactive: -10.7%; `COC(CNC(=O)c1ccc(N2CCC3(CC2)OCCO3)c([N+](=O)[O-])c1)OC`: inactive: 18.1%; `Cc1ccc(NC(=O)/C=N/OCC(=O)NCc2ccccc2Cl)cc1`: inactive: -5.76%. Next, `Nc1cc(=O)[nH]c(SCCSc2cc(Cl)ccc2Cl)n1`: inactive: 20.7%. The figure for `NC(=O)N/N=C/c1ccc(N2CCOCC2)s1` is inactive: 6.52%.

Regarding `COc1ccc(-c2nc(C)ncc2-c2ccccc2)c(O)c1`, the activity change, negative = inhibition is inactive: 3.95%. The figure for `COc1ccc(-c2ccc3c(c2)S(=O)(=O)c2cccc(C(=O)NCc4cc(C)oc4C(F)(F)F)c2C3=O)cc1OC` is inactive: 6.54%. The figure for `COC(=O)c1ccc(CSc2nc3c(c(=O)n2-c2ccc(C)cc2)SCC3)o1` is inactive: 41.4%. The figure for `Cc1ccc(CNC(=O)C(=O)NCC2OCCN2S(=O)(=O)c2ccc(Cl)cc2)cc1` (stereo unspecified) is inactive: 10.6%; for `Cc1nc(SCC(=O)c2cccc([N+](=O)[O-])c2)n[nH]1` it is inactive: -8.68%; for `CCOC(=O)N1CCN(C(=O)C2CCC(=O)N(Cc3ccccc3OC)C2)CC1` (stereo unspecified) it is inactive: 2.7%. As for `O=C(O)/C=C/c1ccc2ccccc2n1`, the activity change, negative = inhibition was inactive: -37.2%. Next, `CCNc1ccc(Br)cc(C(=O)/C=C/c2ccccc2Cl)c1=O`: inactive: 52.4%. The figure for `CC(C)(C)c1cc(C(=O)NNC(=O)Nc2cccc(Cl)c2)n(Cc2ccccc2)n1` is inactive: -6.62%; for `COCCn1c(SCc2ccc(C(=O)OC)o2)nnc1-c1c[nH]c2ccccc12` it is inactive: 1.81%. Next, `CCOc1ccc(OCc2cccc(C(=O)N3CCCC3)c2)cc1`: inactive: 31.9%; `COc1ccc2cc(C(N)=O)/c(=N\NC(=O)c3ccccc3)oc2c1`: inactive: -14.7%. As for `Oc1ccccc1C=NN=Cc1c(O)ccc2ccccc12`, the activity change, negative = inhibition was inactive: 8.98%.

Turning to `COc1cccc(-c2nnc(NC(=O)c3ccc(S(=O)(=O)N(CC(C)C)CC(C)C)cc3)o2)c1`, the activity change, negative = inhibition was inactive: -4.01%. The figure for `Cc1cccn2c(=O)c(C=NCCO)c(NCc3ccco3)nc12` is inactive: 8.58%; for `COCC(=O)N(C)c1nnc(-c2ccccn2)s1` it is inactive: -8.28%. Take `COc1ccc(CN2C(=O)c3cccnc3C2Nc2cc(Cl)ccc2OC)cc1` (stereo unspecified): the activity change, negative = inhibition was inactive: 22.8%. The figure for `CCSc1nc2ccc(OC)cc2cc1C#N` is inactive: 5.68%; for `CCn1c2ccccc2c2cc(/C=N/NC(=O)c3cc(O)cc(O)c3)ccc21` it is inactive: -72.5% [HEK293T LMP1 TES1-eGFP reporter, at 6.8 µM]; for `CC(C(=O)N=Nc1c(O)[nH]c2ccccc12)n1cnc2ccccc2c1=O` (stereo unspecified) it is inactive: 2.17%. The figure for `O=S(=O)(N/N=C/c1ccccc1F)c1ccccc1` is inactive: 4.33%; for `CC(C)(C)c1ccc(Cn2c(=O)cnc3ccccc32)cc1` it is inactive: -5.17%.

Consider `C[C@@]12C(=O)N(Cc3ccccc3)CC(=O)N1[C@H](/C=C/c1ccccc1)[C@@H]1C(=O)N(c3ccccc3)C(=O)[C@@H]12`, for which the activity change, negative = inhibition was inactive: 7.86%. The figure for `O=C(O)c1c2c(nc3ccccc13)/C(=C/c1ccc(O)cc1)CC2` is inactive: -0.558%. Next, `CCCCCCc1cc2cc(-c3nnc(-c4ccccc4)o3)c(=O)oc2cc1O`: inactive: 17.2%. The figure for `O=C(O)c1ccc(N/N=C/c2cc3cc4c(cc3nc2Cl)OCCO4)cc1` is inactive: 13.8%; for `Cc1cnc(NC(=O)c2ccccn2)s1` it is inactive: 9%; for `O=C(COC(=O)c1cc2ccccc2cc1O)NCc1ccccc1` it is inactive: 6%. Regarding `COc1cc(/C=C(\C#N)c2ccccn2)ccc1OCc1ccccc1Cl`, the activity change, negative = inhibition was inactive: 9.75%. Next, `COC(=O)c1c(O)ccc(Oc2ccccc2)c1C(=O)OC`: inactive: 2.56%; `Cc1[nH]n(-c2ccc(Br)cc2)c(=O)c1/C=N/NC(=O)c1ccccc1`: inactive: -87.3%. On to `NC(=S)N/N=C/c1ncc(C(F)(F)F)cc1Cl`, for which the activity change, negative = inhibition was inactive: -95.1%.

As for `COc1ccc(C(Nc2ccccn2)c2oc(CO)cc(=O)c2O)cc1` (stereo unspecified), the activity change, negative = inhibition was inactive: -3.88%.

As to `C=CCN(c1ccc(C(=O)Nc2ccc3c(c2)n(C)c(=O)n3C)cc1)S(C)(=O)=O`, the activity change, negative = inhibition is inactive: 59.9%. Next, `CCC(C)N1C(=O)CCC1C(=O)N1CCN(c2ccc(F)cc2)CC1` (stereo unspecified): inactive: 13%; `COc1ccc(C(=O)Nc2nnc(SCC(=O)NC3CC3)s2)cc1`: inactive: 5.05%; `CCSC1=C(C#N)C(c2ccc(C)o2)CC(=O)N1` (stereo unspecified): inactive: -5.14%.

As to `COc1ccc(-c2csc3ncnc(Sc4nnnn4C)c23)cc1`, the activity change, negative = inhibition is inactive: -83.6%. The figure for `O=C(O)c1ccc(N/N=C/c2ccc3ncccc3c2)cc1` is inactive: -2.02%; for `COc1ccc(O)c(/C=N/NC(=O)c2ccc(OCc3cccc(Br)c3)cc2)c1` it is inactive: 22.7%; for `O=C1C=Cc2cccc3ccc(O)c1c23` it is inactive: -25.7%.

As to `C[C@H](CO)N1C[C@H](C)[C@@H](CN(C)C(=O)NC2CCCCC2)Oc2c(NS(=O)(=O)c3cn(C)cn3)cccc2C1=O`, the activity change, negative = inhibition was inactive: 16.4%. The figure for `CC[C@]1(C(=O)OC)[C@H]2C(=O)N(Cc3ccccc3)C(=O)[C@H]2[C@H]2CN=C(SCc3ccc(C#N)cc3)N21` is inactive: -100%; for `COc1ccccc1-c1ccccc1C1=CC(=O)CC(C)(C)C1=O` it is inactive: 7.03%; for `O=C(O)CCc1nc(-c2ccc(Cl)cc2)no1` it is inactive: -6.77%.

With `CCSc1nnc(NC(=O)CCn2c(=O)oc3ccccc32)s1`, the activity change, negative = inhibition was inactive: 0.664%.

Consider `COc1ccc(C=C2CS(=O)(=O)CC(=Cc3ccc(OC)cc3)C2=O)cc1`, for which the activity change, negative = inhibition is inactive: -98.7%. The figure for `CSCCC(NC(=O)c1ccco1)C(=O)OCC(=O)Nc1ncc(Cl)c(C)c1Cl` (stereo unspecified) is inactive: -0.497%; for `Oc1ccc(C=NNC(=S)Nc2ccccc2)nc1` it is inactive: -90.2%. The figure for `COc1ccc(-c2oc3ncnc(NCCN4CCOCC4)c3c2-c2ccc(OC)cc2)cc1` is inactive: -6.05%; for `Cc1nc(C)n(C(C)CNC(=O)c2ccco2)n1` (stereo unspecified) it is inactive: -2.14%.

Regarding `CCOCCCNC(=O)CN1C(=O)/C(=C\c2ccc(C)cc2)Sc2ccccc21`, the activity change, negative = inhibition was inactive: 6.45%.

Consider `CCN(CC)S(=O)(=O)c1ccc(N=NC2=C(O)CCCC2=O)cc1`, for which the activity change, negative = inhibition was inactive: 6.44%. Next, `CC1(C)CN(Cc2ccccc2)C(=O)[C@H]1CC(=O)Nc1ccccc1`: inactive: 5.59%; `O=S(=O)(NC1c2cccc3cccc(c23)C1Sc1ncccn1)c1ccccc1` (stereo unspecified): inactive: 18%; `COc1cc(/C=N/NC(=O)c2cccc(S(=O)(=O)N3CCOCC3)c2)cc(OC)c1O`: inactive: 4.28%. Next, `CS(=O)(=O)N(CC(=O)Nc1ccc(F)cc1F)C1CCCCC1`: inactive: 1.2%; `CN(Cc1ccc(F)cc1)C(=O)CN1CCN(S(=O)(=O)c2ccc3c(c2)OCCCO3)CC1`: inactive: 16.5%. Next, `CSc1oc(-c2ccc(F)cc2)nc1S(=O)(=O)c1ccc(F)cc1`: inactive: 0.061%; `CC(CCc1ccco1)N(C)S(=O)(=O)c1csc(C(N)=O)c1` (stereo unspecified): inactive: 14%; `CC(=O)c1c(C)[nH]c(C(=O)Nc2ccc(C)cn2)c1C`: inactive: 39.2%. `Cc1nn(CCCC(=O)Nc2cccnc2Cl)c(C)c1[N+](=O)[O-]`: the activity change, negative = inhibition is inactive: 10.8%.
